This data set deals with intestinal mucosae. As to the kind of experiment: Example 1: nutritional (trophic) effect of glicentin on the intestinal mucosae of rats fed an elemental nutrition. In kind it is in vivo, rat. Particulars: 10 μg glicentin s.c. every 12 hours for 7 days. As to the method:
An experiment was performed in male SD rats weighing 140-160 g which had been fed on standard food under light-dark condition of a cycle of 12 hours. The food which was replaced by an elemental nutrition (Elental®, Morishita-Roussel Japan) was taken ad lib., and remained unchanged until the experiment was finished. After feeding on the component nutrition for 3 days, administration of glicentin prepared as described below was started.
Gelatin was dissolved in warm water to a weight ratio of 16%, and the solution autoclaved and cooled to room temperature. To 40 ml of the gelatin solution was added a solution of 1 mg of glicentin in 10 ml of distilled water with stirring at room temperature. The mixture was divided into test tubes, freeze dried and stored for use.
The gelatin solution was subcutaneously given at a dose of 10 μg per glicentin every 12 hours for 7 days to examine a nutritional effect of glicentin on the intestinal mucosae. A similar gelatin solution containing no glicentin was given for the same period of time as a control for comparison. […]
The tissues fixed in the formalin solution were embedded in paraffin to form a preparation which was stained with hematoxylin-eosin and measured for height of the villi using an optical microscope.

B1: Glicentin: Enteroglucagon peptide comprising 69 amino acid residues (SEQ ID NO:1), prepared by genetic engineering procedure (protein)
chain: RSLQDTEEKSRSFSASQADPLSDPDQMNEDKRHSQGTFTSDYSKYLDSRRAQDFVQWLMNTKRNRNNIA
In the case of B1, the Bodyweight after administration was 180.8 ± 5.3.

The values are drawn from patent publication US5547938A, “Therapeutic agent for digestive tract diseases using glicentin” (Nisshin Flour Milling Co., Ltd., priority 1993, dated 1996).
